## Results of single-concentration screens

Each number is a percent effect as filed. The record does not define 0% and 100%; most values in the screen are far below 50% and negative numbers occur (in some assays of this library far below -100). Compounds were drawn at random from those tested, without regard to their results. Two or more numbers in one place are separate tests of the same structure; such repeats can differ widely.

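Phenotypic screen: M. tuberculosis growth, cholesterol and DPPC medium, 4 days; the read-out is not stated. Compounds at 50 µM. The record gives no direction; compounds that gave an IC50 in retests scored well above the rest, so higher reads as more growth inhibition. Size under these conditions: about 69,000 compounds, about 370 of them at 50% or above in at least one test.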

For Cc1cc(NC(=O)N2CCCC(CO)C2)nn1-c1ccccc1Cl (centres undefined) the result was -2.422%.
For CC(C)(C)c1ncc(C(=O)N2CCC(N3CCSCC3)CC2)c(O)n1 the result was -42.29%.
For COC1CCCN(C2CCN(c3cccc(-c4csc(C)n4)c3)CC2)C1 (centres undefined) the result was -0.9959%.
For Cc1nn(C(C)(C)C)c(=O)n1CC(=O)NCC(F)(F)F the result was -6.61%.
For Cc1cscc1C(=O)NC1CC(=O)N(C(C)C)C1=O (centres undefined) the result was 9.82%.
For O=C(O)C(F)(F)F.O=C1COC2(CCN(CC3CC3)CC2)CN1c1cncnc1 the result was -13.55%.
For CC(C)c1nc(CN(C)Cc2cnc(N3CCOCC3)nc2)no1 the result was 5.494%.
For CCOc1ccc(NC(=O)c2ccc(C#N)cc2C)cc1CO the result was -4.312%.
For O=C(CCc1nc(C2CC2)no1)c1ccc2c(c1)OCCO2 the result was 19.03%.
For Cc1cc(C(F)(F)F)nc(CNC(=O)C2CCCCCN2C)n1 (centres undefined) the result was -24.23%.
For Cc1cc(CNc2ccc(CC(=O)N(C)c3ccccc3)cc2)no1 the result was -5.1%.
For NC(=O)Cn1ccc(NC(=O)C2(c3cccc(F)c3)CCC2)n1 the result was -1.89% & 1.034%.
For O=C(c1cccc(Cl)c1F)N1CCOC2(CNCCOC2)C1 (centres undefined) the result was -4.665% & -1.069%.
For Cc1ccc(-c2noc(CN3CCC(N4CCNC4=O)CC3)n2)cc1 the result was -0.1088%.
For COc1ccc(CN(C)Cc2cccc(C#N)c2)c(OC)c1 the result was -7.218%.
For O=C(C1SCCc2sccc21)N1CCN(CC(F)F)CC1 (centres undefined) the result was 13.94%.
For O=C(Cc1ccc2c(c1)CCO2)N1CCN(c2cnccn2)CC1 the result was 12.48%.
For O=C(O)C(F)(F)F.[H][C@@]12CN(Cc3csc(C)n3)C[C@]1([H])CN(C(=O)c1cnccn1)C2 the result was -17.57%.
For CCc1csc(C2CCCN(C(=O)c3ccncc3)C2)n1 (centres undefined) the result was -12.99%.
For Cc1cccc(CN2C(=O)CCC23CCN(C(=O)c2ccco2)CC3)c1 the result was -2.594%.
For COc1cc(CC2CC(c3ccc4c(c3)OCO4)=NO2)cc2c1OCO2 (centres undefined) the result was 3.475%.
For Cc1ccc(C(=O)N(C)CC(=O)N2CCCC2)c(C)c1 the result was -14.29%.
For CC(Cc1cccnc1)Nc1ncnc2cccc(F)c12 (centres undefined) the result was 3.672%.
For CN1C(=O)CC(C(=O)O)C12CCN(Cc1cc(F)ccc1Cl)CC2 (centres undefined) the result was 9.888%.
For O=C(Nc1cccnc1-n1cccn1)N1CCCC(N2CCCC2)C1 (centres undefined) the result was -4.341%.
For CN(C)c1nccc(C2CCN(C(=O)CO)CC2)n1 the result was -7.759%.
For COc1cc(CCC(=O)NCC2CC2)ccc1OCC(F)(F)F the result was -4.284%.
For O=C(O)c1ccc(-c2cscn2)cc1 the result was 7.41% & 0.8946%.
For Cc1nn(C)c(Oc2ccccc2)c1CNC1CCCCNC1=O (centres undefined) the result was -2.492%.
For CC(C)n1ccnc1CN1CCCN(C(=O)CC2CCCO2)CC1 (centres undefined) the result was -29.21%.
For COCC(=O)N1CCC(Nc2ccnc3ccc(Cl)cc23)CC1 the result was 9.307%.
For O=C(NCCCn1ccnc1)N1CCCC1c1ccsc1 (centres undefined) the result was -0.7144%.
For CC(C)(C)CC(=O)NC[C@H]1OC[C@@H](NC2CCC(F)(F)CC2)[C@@H]1O the result was -6.408%.
For COCCCN1CCN(C(=O)C(c2cccc(F)c2)N(C)C)CC1 (centres undefined) the result was -15.71%.
For CN1CC(NC(=O)Nc2cnn(-c3ccccc3Cl)c2)CCC1=O (centres undefined) the result was 5.208%.
For Cc1nc2c(s1)C(N(C)C(=O)NCCCC(C)(C)CO)CCC2 (centres undefined) the result was 3.137%.
For N#Cc1cccc(CNCCNC(=O)Cc2cccc(F)c2)c1 the result was -16.12%.
For CC(C)CNC(=O)N1CCOC2(CCNCC2)C1 the result was -10.55%.
For [H][C@@]12CCN(S(=O)(=O)c3cccs3)[C@]1([H])CCC(=O)N2CC the result was -3.334%.
For Cc1cc(C(=O)N2CCc3ncnc(-c4cnn(C)c4)c3CC2)c(C)o1 the result was 0.0687%.
For CC(C)n1cc(S(=O)(=O)N2CCCCCC2)cn1 the result was 8.397%.
For CCc1nnc2n1CCN(Cc1csc(-c3cnn(C)c3)n1)C2 the result was -12.74%.
For [H][C@@]12CS(=O)(=O)C[C@]1([H])N(S(=O)(=O)c1ccccc1OC)CCN2CCC the result was -3.623%.
For CC(CC(=O)NS(C)(=O)=O)C1CCCCC1 (centres undefined) the result was 11.76%.
For O=C(O)C(F)(F)F.[H][C@@]12CCN(c3ncc(F)cn3)[C@]1([H])CC[C@H](C(=O)NCCOC)O2 the result was 0.7511%.
For Cc1nc(C(=O)N2CCN(S(C)(=O)=O)CC2)c(-c2ccccc2Cl)s1 the result was 21.22%.
For Cc1nc(-c2ccco2)ccc1C(=O)NCCC(=O)N1CCCCC1 the result was -8.763%.
For COc1ccccc1OC1CCN(C(=O)C2CCCN(C)C2)CC1 (centres undefined) the result was 1.629%.
For Cn1nccc1CNC(=O)C1CCCCC1 the result was 1.436%.
For CCC(NC(=O)C1CCN(S(C)(=O)=O)CC1)c1ccc(C)cc1C (centres undefined) the result was -2.714%.
For CC(CNC(=O)c1ccc(Cl)cc1F)N1CCCC1 (centres undefined) the result was 10.91%.
For CC(C)[C@@H]1CN(C(=O)CN(C)Cc2ccc(F)cc2)C[C@H]1C(=O)O the result was -0.2695%.
For CCN(Cc1ccc2c(c1)OCCO2)S(=O)(=O)N(C)C(C)C the result was 0.8873%.
For CN(C(=O)CN1CCCC1c1cnn(C)c1)C1(C#N)CCCCC1 (centres undefined) the result was -13.78% & -7.066%.
For CN(Cc1cccc(-n2cccn2)c1)c1cc(N2CCCC2)nc(N)n1 the result was 23.38%.
For CC(C)CN1CCN(C(=O)c2cccnc2-n2cncn2)CC1 the result was -11.52%.

6 of the entries, repeated:

* Cc1nc(-c2ccco2)ccc1C(=O)NCCC(=O)N1CCCCC1 | -8.763%
* O=C(O)c1ccc(-c2cscn2)cc1 | 7.41% & 0.8946%
* Cc1nc(C(=O)N2CCN(S(C)(=O)=O)CC2)c(-c2ccccc2Cl)s1 | 21.22%
* [H][C@@]12CCN(S(=O)(=O)c3cccs3)[C@]1([H])CCC(=O)N2CC | -3.334%
* CCOc1ccc(NC(=O)c2ccc(C#N)cc2C)cc1CO | -4.312%
* CN1C(=O)CC(C(=O)O)C12CCN(Cc1cc(F)ccc1Cl)CC2 (centres undefined) | 9.888%

Measurements from “University of Dundee, Small-Polar-MMV Screening Library” (2021), ChEMBL document CHEMBL3988442.